In the supplement of paper PMC12067093, “Discovery and optimisation of a covalent ligand for TRIM25 and its application to targeted protein ubiquitination” (Chemical Science, 2025):
This is one part of the list.

compound: CC1Cc2ccccc2N1C(=O)C1CCCN(C1)C(=O)CCl (mixture of isomers) [TRIM25 ligand 11 (diastereomer mixture)]; experiment: probe-labelled cysteine peptide fold change vs DMSO (competition) (log2 fold change); higher = less target engagement (more negative = stronger competition); details: 50 µM; THP-1; incubation time: 4 h
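Note: competitive chemoproteomic profiling in live THP-1 cells with an iodoacetamide desthiobiotin (IA-DTB) probe, comparing probe-labelled peptide intensities in compound-treated cells against DMSO-treated controls.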

| Target | probe-labelled cysteine peptide fold change |
| --- | --- |
| DUS3L_Q96G46_396_TVEVDFVDINVGCPIDLVYKK (UniProt Q96G46) | -0.11 |
| DPF2_Q92785_276_KGPDGLALPNNYCDFCLGDSK (UniProt Q92785) | 0.0551 |
| DNMT1_P26358_62_NQLCDLETK (UniProt P26358) | -0.315 |
| DYNC1H1_Q14204_3089_CVLNWFGDWSTEALYQVGK (UniProt Q14204) | -0.0551 |
| DNPEP_Q9ULA0_413_NDTPCGTTIGPILASR (UniProt Q9ULA0) | 0.09 |
| DPYSL2_Q16555_248_AITIANQTNCPLYITK (UniProt Q16555) | 0.083 |
| DUSP23_Q9BVJ7_53_GPPHSDSCPGLTLHR (UniProt Q9BVJ7) | -0.0244 |
| DPAGT1_Q9H3H5_42_LCGQDLNK (UniProt Q9H3H5) | 0.0571 |
| DOT1L_Q8TEK3_750_QNTPQYLASPLDQEVVPCTPSHVGRPR (UniProt Q8TEK3) | -0.271 |
| DOCK6_Q96HP0_595_SSCSEFTR (UniProt Q96HP0) | -0.0201 |
| DTL_Q9NZJ0_544_SSQAEACSESR (UniProt Q9NZJ0) | -0.122 |
| DYNC1H1_Q14204_3389_ASLACGPMVK (UniProt Q14204) | -0.0952 |
| DUSP9_Q99956_27_LLLLDCR (UniProt Q99956) | 0.116 |
| DUSP23_Q9BVJ7_95_GEAVGVHCALGFGR (UniProt Q9BVJ7) | 0.14 |
| DOCK2_Q92608_1408_NAPGQYIQCFTVQPVLDEHPR (UniProt Q92608) | 0.172 |
| EARS2_Q5JPH6_386_LQVLVEEAFGCQLQNR (UniProt Q5JPH6) | -0.00715 |
| DNMT1_P26358_664_CGVCEVCQQPECGK (UniProt P26358) | -0.119 |
| DOCK11_Q5JSL3_835_FFHHCQLIQSGSK (UniProt Q5JSL3) | 0.163 |

| Target | probe-labelled cysteine peptide fold change |
| --- | --- |
| DOCK8_Q8NF50_186_HLNVLCDVSGK (UniProt Q8NF50) | -0.13 |
| DPH5_Q9H2P9_161_QNGMHTLCLLDIK (UniProt Q9H2P9) | -0.0215 |
| DOCK6_Q96HP0_1619_HAELGNHAEAAQCMVHAAALVAEYLALLEDHR (UniProt Q96HP0) | -0.238 |
| DOCK5_Q9H7D0_627_DSFQIATLICSTK (UniProt Q9H7D0) | -0.0163 |
| DTD1_Q8TEA8_84_QYEILCVSQFTLQCVLK (UniProt Q8TEA8) | 0.323 |
| DYNLL1_P63167_24_NADMSEEMQQDSVECATQALEK (UniProt P63167) | -0.22 |
| EBNA1BP2_Q99848_56_QCLAEFKR (UniProt Q99848) | -0.0934 |
| DOCK11_Q5JSL3_615_NCQNITVEVEEFVPEMTK (UniProt Q5JSL3) | 0.0828 |
| DNMT1_P26358_686_QACQER (UniProt P26358) | 0.0901 |
| DYNC1H1_Q14204_2594_VAAPDVVVPTLDTVRHEALLYTWLAEHKPLVLCGPPGSGK (UniProt Q14204) | -0.191 |
| DUSP12_Q9UNI6_23_VSCAGQMLEVQPGLYFGGAAAVAEPDHLR (UniProt Q9UNI6) | -0.342 |
| DOK3_Q7L591_493_GPAPCDRP (UniProt Q7L591) | 0.0968 |
| DPCD_Q9BVM2_164_FSIPDLDRHQLPLDDALLSFAHANCTLIISYQK (UniProt Q9BVM2) | 0.267 |
| DSCR3_O14972_221_VETCGCAEGYAR (UniProt O14972) | 0.164 |
| DSTN_P60981_23_CSTPEEIK (UniProt P60981) | -0.00451 |
| DPP8_Q6V1X1_506_CPIKEEIAITSGEWEVLGR (UniProt Q6V1X1) | -0.0458 |
| DYNLT1_P63172_83_NGAGLHTASSCFWDSSTDGSCTVR (UniProt P63172) | 0.23 |
| DOCK8_Q8NF50_170_QTFESETLECSEPAAQAGPR (UniProt Q8NF50) | -0.158 |
